According to PubChem BioAssay AID2551 (National Center for Advancing Translational Sciences (NCATS), 2010):
In all, about 310,000 compounds went through this assay and about 17,000 (5.5%) were called active. Inconclusive results, whose numbers are uncertain, are shown with a selection of clear calls. Calls come from the whole dose curve; as a rule, active = well fitted inhibition curve with a large enough effect; inconclusive = small, poorly fitted or top-dose-only effect, or effect the other way; inactive = no such curve, though single readings can be large or run the other way. Potencies beside an inconclusive call are fits to weak or partial responses and may not hold up.

Sequences of proteins named here, by UniProt entry; tags and fusion partners are left off. A change or cut given only in a name is not applied to a line headed by its entry.
UniProt P51450: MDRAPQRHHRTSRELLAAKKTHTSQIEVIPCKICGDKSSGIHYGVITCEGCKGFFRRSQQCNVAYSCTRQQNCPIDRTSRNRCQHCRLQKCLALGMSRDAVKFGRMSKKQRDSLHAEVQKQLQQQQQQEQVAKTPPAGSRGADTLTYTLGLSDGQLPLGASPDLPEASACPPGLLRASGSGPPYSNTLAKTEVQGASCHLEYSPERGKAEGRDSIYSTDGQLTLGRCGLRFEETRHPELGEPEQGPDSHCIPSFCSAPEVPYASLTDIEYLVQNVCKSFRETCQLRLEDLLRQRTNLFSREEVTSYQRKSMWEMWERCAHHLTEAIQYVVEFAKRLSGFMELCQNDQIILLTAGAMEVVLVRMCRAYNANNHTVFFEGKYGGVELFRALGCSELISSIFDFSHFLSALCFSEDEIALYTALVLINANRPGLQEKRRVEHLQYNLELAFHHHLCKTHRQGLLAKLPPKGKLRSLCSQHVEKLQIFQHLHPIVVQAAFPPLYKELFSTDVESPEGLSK

molecular target: Nuclear receptor ROR-gamma (Mus musculus) (UniProt P51450); assay: qHTS for inhibitors of ROR gamma transcriptional activity; settings: Drosophila S2 Gal4-RORgamma UAS-luciferase reporter, 20 h; activity change, negative = inhibition: at 53.6 µM (top of the series); note: nearly all actives have a fitted effect of over 60% in size
Description: NIH Molecular Libraries Probe Production Network [MLPCN] NIH Chemical Genomics Center [NCGC] MLPCN Grant: R03 DA026211-01 Assay Provider: Dan Littman, New York University Assay Overview: The retinoic acid-related orphan receptor (ROR) gamma is a transcription factor that has a central role in the differentiation of Th17 cells, a subset of T helper cells that secrete the inflammatory cytokines IL-17, IL-17F, and IL-22. Th17 cells have been implicated in graft versus host disease, autoimmune disease and asthma. ROR gamma is induced in naive T helper cells in the presence of TGF-beta combined with IL-6, IL-21, or IL-23, and thereafter directs the expression of the Th17 lineage cytokines. To study the mechanism of action of ROR gamma, an insect cell-based assay was screened. This Drosophila Schneider cell line was stably transfected with two vectors: a gene expressing a fusion of the Gal4 DNA binding domain and ROR gamma transactivation domain under the control of the metallothionine promoter and a Photinus luciferase reporter regulated by the Gal4 binding site enhancer, UAS. […] Small molecule inhibitors of ROR gamma activity are detected by a decrease in luciferase reporter activity.
Assay Protocol Summary: For screening, 600 cells in 4 uL/well were dispensed into white solid 1536-well plates (Grenier) using a solenoid-based dispenser. Following transfer of 23 nL compound or DMSO vehicle by a pin tool, the plates were incubated 1 hr at ambient temperature, and 1 uL/well copper sulfate (700 uM final concentration) was added. The plates were centrifuged 15 s at 1000 RPM and incubated 20 hr at ambient temperature. After addition of 1.5 uL Photinus luciferase detection reagent, the plates were incubated 10 min at ambient temperature and then read by an ViewLux (Perkin Elmer) to detect luminescence. Keywords: NIH Roadmap, MLPCN, MLI, MLSMR, qHTS, NCGC, qHTS, nuclear hormone receptor, retinoic acid-related orphan receptor, ROR gamma
% is set by controls: 0 for no effect and ±100 for the full control effect; potency is the fitted concentration of half-maximal effect.

SMILES	activity change, negative = inhibition	Potency
O=C(O)C(Cl)(Cl)Br	inactive: 3.85%	
COc1ccccc1NC(=O)c1cn(CCC#N)nc1-c1ccc(F)cc1		inconclusive: 11.2 µM [activator, single point]
CCOc1cc2c(cc1OCC)-n1cccc1C(c1ccc(F)cc1)NC2 (stereo not given)	inactive: 3.73%	
Cc1ccc(CC2C(=O)N(C)C(=O)N(C)C2=O)s1	inactive: 0% [at 0.365 µM]	
O=C(C1CCC(=O)N1C1CCCC1)N1CCC2(CC1)OCCO2 (stereo not given)	inactive: -2.31%	
CCOC(=O)C1=C(N)Oc2ccccc2C12C(=O)N(CC(=O)OC)C(CC(=O)OC)=C2C(=O)OC (stereo not given)	inactive: 4.82%	
CN(C)c1ccc(N=O)cc1		active: 2.24 µM
O=c1c(C=NCCN2CCNCC2)c(O)n(C2CCCCC2)c(=O)n1C1CCCCC1		inconclusive: 35.5 µM [inhibitor, single point]
CN1C(=O)C(=Cc2coc3ccccc3c2=O)C(=O)N(C)C1=O	inactive: 12.3%	
Cc1nc2cc(-c3ccccc3)nn2c(C)c1CCC(=O)N1CCC2(CC1)OCCO2		inconclusive: 35.5 µM [inhibitor, single point]
Cc1cccc(NC(N)=S)c1		inconclusive: 22.4 µM [inhibitor, single point]
Cc1nc(-c2nc(-c3c(C(=O)NNC(=O)c4ccc(Cl)cc4)noc3C)cs2)cs1		active: 10 µM
C[C@@H](Cc1ccc(O)cc1)NC[C@@H](O)c1cc(O)cc(O)c1	inactive: 17.1% [at 16.9 µM]	
CC(=O)C1=NOC(CNc2ncc(C(F)(F)F)cc2Cl)C1 (stereo not given)		inconclusive: 11.2 µM [activator, partial curve]
COc1cc(NC(=O)c2ccco2)ccc1NC(=O)c1ccccc1Cl		inconclusive: 22.4 µM [activator, single point]
COC(=O)c1c(C)n(Cc2ccc3c(c2)OCO3)c2ccc(O)cc12		inconclusive: 14.1 µM [activator, single point]
O=c1c2ccccc2nc(-c2ccccc2)n1-c1nccs1	inactive: 5.09%	
Cc1ccc2c(c1)CC1(CN2C)C(=O)NC(=O)N(C(C)C)C1=O (stereo not given)	inactive: 16.3%	
Cc1onc(-c2ccccc2)c1C(=O)Nc1ccc(S(=O)(=O)N2CCCC2)cc1		active: 8.91 µM
O=C(NC(=S)Nc1ccccc1N1CCCC1)c1ccccc1Br		active: 2.82 µM
c1ccc(N2CC3(CCNCC3)C2)nc1	inactive: -18.5%	
COc1ccc(-n2nc(C(=O)NCC(=O)N3CCC4(CC3)OCCO4)c3ccccc3c2=O)cc1		inconclusive: 14.1 µM [inhibitor, partial curve]
COc1cccc(C(=O)C2CCCN(Cc3cccc(C)n3)C2)c1 (stereo not given)		inconclusive: 28.2 µM [inhibitor, single point]
C[C@]12CCC(=O)C=C1CC[C@@H]1[C@@H]2CC[C@@]2(C)[C@H]1CC[C@]2(C)O		inactive

Rewritten with bars between the fields: entries from further up.
SMILES | activity change, negative = inhibition | Potency
COc1cc(NC(=O)c2ccco2)ccc1NC(=O)c1ccccc1Cl |  | inconclusive: 22.4 µM [activator, single point]
COC(=O)c1c(C)n(Cc2ccc3c(c2)OCO3)c2ccc(O)cc12 |  | inconclusive: 14.1 µM [activator, single point]

Additional records.

SMILES	activity change, negative = inhibition	Potency
C=C(C)Cn1c(-c2cccs2)n[nH]c1=S		active: 12.6 µM
CN1CCc2cc3c(c4c2C1Cc1ccccc1-4)OCO3 (stereo not given)		inconclusive: 7.08 µM [inhibitor, partial curve]
c1ccc2c(c1)-c1cccc3cccc-2c13	inactive: 23.1%	
Cc1ccc(N2C(=O)NC(=O)C3(Cc4ccccc4N4CCN(c5ccccc5)CC43)C2=O)cc1 (stereo not given)		inconclusive: 2.51 µM [activator, full curve, poor fit]
CN1CCCC2(CCN(C(=O)Oc3ccccc3)CC2)C1	inactive: 2.61%	
CN1C(=O)N(C)C(=O)C2(Cc3c(ccc4ccccc34)N(C)C2)C1=O	inactive: -7.57%	
c1ccc(CCCN2CCN(CCOC(c3ccccc3)c3ccccc3)CC2)cc1		active: 31.6 µM
CC(C)C[C@H]1C(=O)N2CCC[C@H]2[C@]2(O)O[C@](NC(=O)[C@@H]3C=C4c5cccc6[nH]c(Br)c(c56)C[C@H]4N(C)C3)(C(C)C)C(=O)N12		inconclusive: 3.55 µM [activator, partial curve]
COc1cc2c(cc1OC)CN(c1ccc([N+](=O)[O-])c(C(F)(F)F)c1)CC2		inconclusive: 22.4 µM [inhibitor, single point]
C[C@]12CCC3C(CC[C@]4(O)CC(O)CC[C@@]34C=O)[C@]1(O)CCC2C1=CC(=O)OC1 (stereo not given in full)	inactive: -0.232%	
CCCCn1c(=O)c(C=Nc2ccc(Cl)cc2)c(O)n(Cc2ccco2)c1=O	inactive: 37.2%	
O=C(CCl)c1ccc(Oc2ccc(C(=O)CCl)cc2)cc1		inconclusive: 22.4 µM [inhibitor, single point]
O=C(N/N=C/c1c(O)n(Cc2ccc(F)cc2)c(=O)[nH]c1=O)c1ccccc1		active: 12.6 µM
CO[C@H]1[C@@H](O)CC(OC2[C@@H](O)CC(OC3[C@@H](O)C[C@H](OC4CC[C@@]5(C)C(CCC6C5CC(O)[C@]5(C)[C@H](C7=CC(=O)OC7)CCC65O)C4)O[C@@H]3C)O[C@@H]2C)O[C@@H]1C (stereo not given in full)		active: 2.51 µM
CCOc1ccc(Cl)cc1CNCCc1ccccc1F	inactive: -27.3%	
CN1Cc2c(ccc3c2OCO3)C2C(O)Cc3cc4c(cc3C21)OCO4 (stereo not given)		inactive
O=C(Nc1ccc(Cl)cc1)C1CCN(C(=O)c2cccs2)CC1		inconclusive: 6.31 µM [activator, full curve, poor fit]
COCCCNC(=O)c1c(NC(=O)c2ccccc2Cl)n(Cc2ccccc2)c2nc3ccccc3nc12	inactive: -40.5%	
CCOC(=O)N1CCN(c2ccc(Cl)c(Cl)c2)CC1		inconclusive: 31.6 µM [activator, single point]
O=C(Cn1cnc2sc3c(c2c1=O)CCCC3)NCCC(=O)N1CCC2(CC1)OCCO2	inactive: 7.88%	
CCOP(=O)(OCC)C(NC(=O)c1cccc(C)c1)C(Cl)(Cl)Cl (stereo not given)	inactive: 6.31%	
C=CC[N+]1(C)CCC23c4c5ccc(O)c4O[C@H]2C(=O)CC[C@@]3(O)C1C5 (stereo not given in full)	inactive: -0.504%	
Nc1nc(NC(=O)/C=C/c2ccc(F)cc2)nn1-c1ccccc1		inconclusive: 35.5 µM [inhibitor, single point]
Cc1cccc(-n2c(O)c(C=Nc3ccc(Br)cn3)c(=O)[nH]c2=O)c1		inconclusive: 15.8 µM [inhibitor, partial curve, poor fit]
O=c1[nH]c(=O)n(CCC2=CCCCC2)c(O)c1C=NCCN1CCNCC1	inactive: -1%	
